Some of these results come from one statement about several compounds together.
What was measured:
μOR [1] = target: T1, μOR (Homo sapiens, UniProt P35372); type: cell-based
μOR [2] = target: T1, μOR; type: binding; design: expressed in transfected cells; host or cells: HEK293 membranes (Ki); Sf9 insect cell membranes (single-point screen); PDSP for analogs; conditions: from Ki values of Table 2

By UniProt entry, the sequences of proteins in these tests, tags left out.
UniProt P35372, whole entry: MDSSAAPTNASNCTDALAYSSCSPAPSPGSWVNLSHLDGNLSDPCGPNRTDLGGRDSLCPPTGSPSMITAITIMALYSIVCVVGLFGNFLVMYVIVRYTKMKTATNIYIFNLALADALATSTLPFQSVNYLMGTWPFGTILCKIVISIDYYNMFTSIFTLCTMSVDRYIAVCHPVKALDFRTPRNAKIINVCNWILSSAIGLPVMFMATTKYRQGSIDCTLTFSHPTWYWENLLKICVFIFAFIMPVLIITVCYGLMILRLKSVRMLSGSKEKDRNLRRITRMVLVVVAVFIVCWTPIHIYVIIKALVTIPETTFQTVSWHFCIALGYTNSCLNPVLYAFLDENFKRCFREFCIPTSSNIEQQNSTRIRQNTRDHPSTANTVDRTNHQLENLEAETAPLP

SMILES	Gi/o activation, μOR agonist activity (in words) (μOR [1])	specificity for the μOR over KOR (μOR [2])
CC(C)[C@H](CNC(=O)c1ccc([N+](=O)[O-])s1)N1CCc2ccccc2C1 [compound 8]	activated Gi/o	–
C[C@H](Cc1ccsc1)NC(=O)NC[C@@H](Cc1ccccc1)N(C)C [compound 12]	activated Gi/o	specific for the μOR over KOR
COc1nc(C)cc(C)c1CNC(=O)NC[C@@H](Cc1ccccc1)N(C)C [compound 13]	activated Gi/o	specific for the μOR over KOR
CN(C)[C@H](CNC(=O)NCc1cccc([N+](=O)[O-])c1)Cc1ccccc1 [compound 14]	activated Gi/o	specific for the μOR over KOR
Cc1nc(CNC(=O)NC[C@@H](Cc2ccccc2)N(C)C)sc1C [compound 15]	–	specific for the μOR over KOR

Source: patent US20200109126A1 (priority 2017, published 2020)
